Data as given in patent US20230062712A1 (SILVERBACK THERAPEUTICS, published 2023).
No constants are given. Whether binding was seen depends on the method and setting. Some binding calls cover weakened binding; strength is not graded here.

Legend:
[1] = target: T1, human asialoglycoprotein receptor 1 (ASGR1) on cells (human) (UniProt P07306); test: flow cytometry on HepG2 cells
T1 sequence (looked up): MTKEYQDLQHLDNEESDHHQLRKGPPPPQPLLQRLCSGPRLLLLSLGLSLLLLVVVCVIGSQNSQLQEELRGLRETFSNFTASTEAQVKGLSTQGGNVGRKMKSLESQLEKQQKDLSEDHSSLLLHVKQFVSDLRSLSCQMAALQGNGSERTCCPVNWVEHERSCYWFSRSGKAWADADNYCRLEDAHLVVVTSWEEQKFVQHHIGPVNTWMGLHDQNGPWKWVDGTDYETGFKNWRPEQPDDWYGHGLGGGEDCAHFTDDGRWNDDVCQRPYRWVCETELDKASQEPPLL

[2] = target: T1, human asialoglycoprotein receptor 1 (ASGR1) on cells (human); test: flow cytometry on HepG2 cells, anti-human IgG PE secondary, MFI (Geo Mean)
[3] = target: T1, human asialoglycoprotein receptor 1 (ASGR1) on cells (human); test: Guava flow cytometry screen on HepG2 cells

B1: hzH8K-1 (antibody, V domains shown)
VH: QVQLQESGPGLVKPSQTLSLTCTVSGGSISSDYAWNWIRQHPGKGLEWIGYRSYRGSTSYNPSLKSRVTISVDTSKNQFSLKLSSVTAADTAVYYCARRGYYGSSSHWYFDVWGQGTTVTVSS
VL: DIQMTQSPSSLSASVGDRVTITCRASENIYSYLAWYQQKPGKAPKLLIYNAKTLAEGVPSRFSGSGSGTDFTLTISSLQPEDFATYYCQHHYGTPLTFGGGTKVEIK
notes: IgG1 and kappa constant regions
binding [1]: binds
binding [2]: binds

B2: hzH8K-10 (antibody, V domains shown)
VH: QVQLQESGPGLVKPSQTLSLTCTVSGGSISSDYAWNWIRQHPGKGLEWIGYRSYRGSTSYNPSLKSRVTITRDTSKNQFSLKLSSVTAADTAVYYCARRGYYGSSSHWYFDVWGQGTTVTVSS
VL: DIQMTQSPSSLSASVGDRVTITCRASENIYSYLAWYQQKPGKAPKLLIYNAKTLAEGVPSRFSGSGSGTDFTLTISSLQPEDFATYYCQHHYGTPLTFGGGTKVEIK
binding [1]: binds
binding [2]: binds

B3: hzL4L-7 (antibody, V domains shown)
VH: QVQLQESGPGLVKPSQTLSLTCTVSGYSISSDYAWNWIRQHPGKGLEWIGYISYSGSTRYNPSLKSRVTITRDTSKNQFSLKLSSVTAADTAVYYCARRYRYDEGYGMDYWGQGTTVTVSS
VL: DIQMTQSPSSLSASVGDRVTITCRASENIYSNLAWYQQKPGKAPKLLIYAATNLADGVPSRFSGSGSGTDFTLTISSLQPEDFATYYCQHFWGTPPWTFGGGTKVEIK
notes: as for B1
binding [1]: binds
binding [2]: binds
binding [3]: binds

B4: hzL4L-14 (antibody, V domains shown)
VH: QVQLQESGPGLVKPSQTLSLTCTVSGYSISSDYAWNWIRQHPGKGLEWIGYISYSGSTRYNPSLKSRVTITRDTSKNQFSLKLSSVTAADTAVYYCARRYRYDEGYGMDYWGQGTTVTVSS
VL: DIQMTQSPSSLSASVGDRVTITCRASENIYSNLAWYQQKPGKAPKLLIYAATNLAEGVPSRFSGSGSGTDFTLTISSLQPEDFATYYCQHFWGTPPWTFGGGTKVEIK
binding [1]: binds
binding [2]: binds

B5: chL4L (antibody, human IgG1, kappa, V domains shown)
VH: DVQLQESGPGLVKPSQSLSLTCTVTGYSITSDYAWNWIRQFPGNKLEWMGYISYSGSTRYNPSLKSRISITRDTSKNQFFLQLNSVTTEDTATYYCARRYRYDEGYGMDYWGQGTSVTVSS
VL: DIQMTQSPASLSVFVGEIVTITCRASENIYSNLAWYQQKQGKSPQLLVYAATNLADGVPSRFTGSGSGTQFSLKINSLQSEDFGNYYCQHFWGTPPWTFGGGTKLEIKR
binding [3]: binds

B6: hzL4L-3 (antibody, V domains shown)
VH: QVQLQESGPGLVKPSQTLSLTCTVSGYSITSDYAWNWIRQHPGKGLEWIGYISYSGSTRYNPSLKSRISITRDTSKNQFSLKLSSVTAADTAVYYCARRYRYDEGYGMDYWGQGTTVTVSS
VL: DIQMTQSPSSLSASVGDRVTITCRASENIYSNLAWYQQKPGKAPKLLIYAATNLADGVPSRFSGSGSGTDFTLTISSLQPEDFATYYCQHFWGTPPWTFGGGTKVEIK
binding [3]: binds

B7: hzL4L-4 (antibody, V domains shown)
VH: QVQLQESGPGLVKPSQTLSLTCTVSGYSITSDYAWNWIRQHPGKGLEWIGYISYSGSTRYNPSLKSRVTISVDTSKNQFSLKLSSVTAADTAVYYCARRYRYDEGYGMDYWGQGTTVTVSS
VL: DIQMTQSPSSLSASVGDRVTITCRASENIYSNLAWYQQKPGKAPKLLIYAATNLADGVPSRFSGSGSGTDFTLTISSLQPEDFATYYCQHFWGTPPWTFGGGTKVEIK
binding [3]: binds

B8: hzL4L-11 (antibody, V domains shown)
VH: QVQLQESGPGLVKPSQTLSLTCTVSGYSITSDYAWNWIRQHPGKGLEWIGYISYSGSTRYNPSLKSRISITRDTSKNQFSLKLSSVTAADTAVYYCARRYRYDEGYGMDYWGQGTTVTVSS
VL: DIQMTQSPSSLSASVGDRVTITCRASENIYSNLAWYQQKPGKAPKLLIYAATNLAEGVPSRFSGSGSGTDFTLTISSLQPEDFATYYCQHFWGTPPWTFGGGTKVEIK
binding [3]: binds
